The supplement of paper PMC10849652
This is one part of the list.

Amino acid sequences for entries named in this document (tags omitted). A change or cut given only in a name is not applied to a line headed by its entry.
UniProt Q00973: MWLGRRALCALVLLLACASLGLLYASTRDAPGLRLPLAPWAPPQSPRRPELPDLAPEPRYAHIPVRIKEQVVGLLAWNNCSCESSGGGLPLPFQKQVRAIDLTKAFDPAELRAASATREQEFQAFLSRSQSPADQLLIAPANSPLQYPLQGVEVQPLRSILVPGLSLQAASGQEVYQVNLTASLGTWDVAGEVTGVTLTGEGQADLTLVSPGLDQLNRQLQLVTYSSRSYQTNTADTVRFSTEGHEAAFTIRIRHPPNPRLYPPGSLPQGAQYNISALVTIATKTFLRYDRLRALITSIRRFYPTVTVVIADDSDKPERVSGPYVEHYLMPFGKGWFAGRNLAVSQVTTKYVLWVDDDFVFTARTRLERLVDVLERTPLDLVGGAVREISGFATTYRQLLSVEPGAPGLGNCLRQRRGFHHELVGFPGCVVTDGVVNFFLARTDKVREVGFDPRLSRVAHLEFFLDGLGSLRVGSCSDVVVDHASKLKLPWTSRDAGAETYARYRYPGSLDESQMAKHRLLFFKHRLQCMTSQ
UniProt P15291: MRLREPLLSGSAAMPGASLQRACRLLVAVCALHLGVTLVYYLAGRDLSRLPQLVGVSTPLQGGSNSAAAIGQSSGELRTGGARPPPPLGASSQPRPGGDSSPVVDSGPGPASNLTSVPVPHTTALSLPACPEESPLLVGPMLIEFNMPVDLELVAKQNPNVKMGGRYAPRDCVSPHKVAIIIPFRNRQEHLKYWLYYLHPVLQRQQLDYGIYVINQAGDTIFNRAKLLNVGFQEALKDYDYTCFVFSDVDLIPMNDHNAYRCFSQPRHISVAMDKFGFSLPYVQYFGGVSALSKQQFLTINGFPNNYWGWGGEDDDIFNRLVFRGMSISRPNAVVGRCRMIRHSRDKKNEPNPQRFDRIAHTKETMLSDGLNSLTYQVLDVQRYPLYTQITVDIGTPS
UniProt Q8WUW1: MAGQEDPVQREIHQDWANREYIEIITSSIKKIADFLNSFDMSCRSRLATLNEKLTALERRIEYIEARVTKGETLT
UniProt Q9UQB8: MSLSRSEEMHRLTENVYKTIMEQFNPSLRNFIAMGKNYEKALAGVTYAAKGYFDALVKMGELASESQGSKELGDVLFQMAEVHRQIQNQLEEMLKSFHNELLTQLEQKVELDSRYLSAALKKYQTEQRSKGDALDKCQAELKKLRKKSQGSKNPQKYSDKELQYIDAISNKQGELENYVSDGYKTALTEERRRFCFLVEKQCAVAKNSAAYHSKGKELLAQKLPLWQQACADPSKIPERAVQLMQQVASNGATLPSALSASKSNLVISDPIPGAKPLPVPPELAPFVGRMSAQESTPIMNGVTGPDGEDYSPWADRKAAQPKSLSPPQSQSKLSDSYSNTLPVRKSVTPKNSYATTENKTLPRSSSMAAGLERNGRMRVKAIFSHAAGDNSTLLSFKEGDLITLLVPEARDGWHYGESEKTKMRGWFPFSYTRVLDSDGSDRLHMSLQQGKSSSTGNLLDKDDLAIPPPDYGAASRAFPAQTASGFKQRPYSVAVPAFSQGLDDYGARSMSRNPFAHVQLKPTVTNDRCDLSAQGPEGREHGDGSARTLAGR
UniProt Q9NYF8, whole entry, looked up: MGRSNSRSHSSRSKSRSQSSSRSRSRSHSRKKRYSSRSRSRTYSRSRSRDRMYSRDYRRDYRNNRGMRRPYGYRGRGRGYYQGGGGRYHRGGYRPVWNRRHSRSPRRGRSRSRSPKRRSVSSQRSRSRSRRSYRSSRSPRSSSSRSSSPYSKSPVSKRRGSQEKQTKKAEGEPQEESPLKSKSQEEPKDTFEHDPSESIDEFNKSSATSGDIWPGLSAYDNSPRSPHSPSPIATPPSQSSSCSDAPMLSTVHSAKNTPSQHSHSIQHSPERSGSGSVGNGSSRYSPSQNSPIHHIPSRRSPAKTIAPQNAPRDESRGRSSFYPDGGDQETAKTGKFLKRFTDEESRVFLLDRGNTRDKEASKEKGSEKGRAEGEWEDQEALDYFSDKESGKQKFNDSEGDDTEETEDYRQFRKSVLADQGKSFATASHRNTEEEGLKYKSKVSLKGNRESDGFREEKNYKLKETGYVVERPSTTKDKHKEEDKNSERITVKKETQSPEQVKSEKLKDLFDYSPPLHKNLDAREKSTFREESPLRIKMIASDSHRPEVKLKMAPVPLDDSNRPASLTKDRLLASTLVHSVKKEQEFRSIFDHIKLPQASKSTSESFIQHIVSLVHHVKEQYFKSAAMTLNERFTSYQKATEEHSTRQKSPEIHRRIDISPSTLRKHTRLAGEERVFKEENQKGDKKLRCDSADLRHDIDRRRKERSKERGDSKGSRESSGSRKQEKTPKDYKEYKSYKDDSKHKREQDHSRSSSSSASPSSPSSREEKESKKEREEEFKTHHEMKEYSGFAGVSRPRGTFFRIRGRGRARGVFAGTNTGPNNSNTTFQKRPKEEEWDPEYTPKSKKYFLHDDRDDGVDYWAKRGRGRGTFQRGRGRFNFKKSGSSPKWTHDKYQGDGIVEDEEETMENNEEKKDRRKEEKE
UniProt P38398, whole entry, looked up: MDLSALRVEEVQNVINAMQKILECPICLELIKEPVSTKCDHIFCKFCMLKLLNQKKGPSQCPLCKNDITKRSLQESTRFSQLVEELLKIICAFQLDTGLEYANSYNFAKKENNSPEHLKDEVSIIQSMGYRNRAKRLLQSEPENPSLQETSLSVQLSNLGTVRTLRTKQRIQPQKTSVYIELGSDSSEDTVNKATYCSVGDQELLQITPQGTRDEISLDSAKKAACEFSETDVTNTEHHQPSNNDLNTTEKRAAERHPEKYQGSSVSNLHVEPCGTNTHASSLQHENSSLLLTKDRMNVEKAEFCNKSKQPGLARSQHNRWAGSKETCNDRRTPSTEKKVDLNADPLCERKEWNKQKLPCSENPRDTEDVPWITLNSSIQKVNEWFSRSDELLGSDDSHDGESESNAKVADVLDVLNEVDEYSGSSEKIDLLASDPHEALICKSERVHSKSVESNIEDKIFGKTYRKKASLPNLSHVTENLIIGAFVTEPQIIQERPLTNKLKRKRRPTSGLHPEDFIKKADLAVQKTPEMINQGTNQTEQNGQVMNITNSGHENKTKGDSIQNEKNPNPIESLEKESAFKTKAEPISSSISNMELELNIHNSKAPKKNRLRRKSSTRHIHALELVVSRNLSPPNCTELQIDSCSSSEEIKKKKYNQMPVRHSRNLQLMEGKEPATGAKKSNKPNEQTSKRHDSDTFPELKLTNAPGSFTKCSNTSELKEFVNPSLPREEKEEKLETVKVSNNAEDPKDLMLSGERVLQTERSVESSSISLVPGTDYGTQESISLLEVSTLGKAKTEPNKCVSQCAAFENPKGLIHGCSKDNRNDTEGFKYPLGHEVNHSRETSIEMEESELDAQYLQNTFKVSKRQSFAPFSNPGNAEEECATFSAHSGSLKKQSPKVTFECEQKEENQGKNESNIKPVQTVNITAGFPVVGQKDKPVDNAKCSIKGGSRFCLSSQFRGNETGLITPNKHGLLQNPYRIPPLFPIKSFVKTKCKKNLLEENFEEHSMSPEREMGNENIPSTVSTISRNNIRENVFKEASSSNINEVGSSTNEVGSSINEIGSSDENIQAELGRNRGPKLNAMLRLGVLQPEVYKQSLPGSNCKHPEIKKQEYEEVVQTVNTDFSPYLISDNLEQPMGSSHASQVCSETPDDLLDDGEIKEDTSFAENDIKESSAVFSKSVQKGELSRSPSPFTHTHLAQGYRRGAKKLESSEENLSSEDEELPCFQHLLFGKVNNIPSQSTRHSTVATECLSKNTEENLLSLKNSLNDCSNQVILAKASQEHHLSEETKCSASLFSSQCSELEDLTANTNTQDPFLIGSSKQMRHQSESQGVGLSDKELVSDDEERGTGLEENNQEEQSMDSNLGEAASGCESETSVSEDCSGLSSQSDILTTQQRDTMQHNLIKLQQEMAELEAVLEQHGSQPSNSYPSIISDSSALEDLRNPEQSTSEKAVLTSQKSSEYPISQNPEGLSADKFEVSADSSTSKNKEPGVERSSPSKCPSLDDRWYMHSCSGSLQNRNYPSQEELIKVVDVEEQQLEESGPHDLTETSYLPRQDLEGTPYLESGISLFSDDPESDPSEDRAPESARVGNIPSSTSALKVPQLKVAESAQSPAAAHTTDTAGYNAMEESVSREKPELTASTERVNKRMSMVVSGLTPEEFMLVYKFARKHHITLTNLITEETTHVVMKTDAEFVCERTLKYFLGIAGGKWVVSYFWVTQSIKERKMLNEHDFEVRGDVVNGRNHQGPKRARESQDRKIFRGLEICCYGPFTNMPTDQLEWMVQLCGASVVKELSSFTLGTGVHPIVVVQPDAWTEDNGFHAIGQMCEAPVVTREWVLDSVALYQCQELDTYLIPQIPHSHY
UniProt Q9H0E9, whole entry, looked up: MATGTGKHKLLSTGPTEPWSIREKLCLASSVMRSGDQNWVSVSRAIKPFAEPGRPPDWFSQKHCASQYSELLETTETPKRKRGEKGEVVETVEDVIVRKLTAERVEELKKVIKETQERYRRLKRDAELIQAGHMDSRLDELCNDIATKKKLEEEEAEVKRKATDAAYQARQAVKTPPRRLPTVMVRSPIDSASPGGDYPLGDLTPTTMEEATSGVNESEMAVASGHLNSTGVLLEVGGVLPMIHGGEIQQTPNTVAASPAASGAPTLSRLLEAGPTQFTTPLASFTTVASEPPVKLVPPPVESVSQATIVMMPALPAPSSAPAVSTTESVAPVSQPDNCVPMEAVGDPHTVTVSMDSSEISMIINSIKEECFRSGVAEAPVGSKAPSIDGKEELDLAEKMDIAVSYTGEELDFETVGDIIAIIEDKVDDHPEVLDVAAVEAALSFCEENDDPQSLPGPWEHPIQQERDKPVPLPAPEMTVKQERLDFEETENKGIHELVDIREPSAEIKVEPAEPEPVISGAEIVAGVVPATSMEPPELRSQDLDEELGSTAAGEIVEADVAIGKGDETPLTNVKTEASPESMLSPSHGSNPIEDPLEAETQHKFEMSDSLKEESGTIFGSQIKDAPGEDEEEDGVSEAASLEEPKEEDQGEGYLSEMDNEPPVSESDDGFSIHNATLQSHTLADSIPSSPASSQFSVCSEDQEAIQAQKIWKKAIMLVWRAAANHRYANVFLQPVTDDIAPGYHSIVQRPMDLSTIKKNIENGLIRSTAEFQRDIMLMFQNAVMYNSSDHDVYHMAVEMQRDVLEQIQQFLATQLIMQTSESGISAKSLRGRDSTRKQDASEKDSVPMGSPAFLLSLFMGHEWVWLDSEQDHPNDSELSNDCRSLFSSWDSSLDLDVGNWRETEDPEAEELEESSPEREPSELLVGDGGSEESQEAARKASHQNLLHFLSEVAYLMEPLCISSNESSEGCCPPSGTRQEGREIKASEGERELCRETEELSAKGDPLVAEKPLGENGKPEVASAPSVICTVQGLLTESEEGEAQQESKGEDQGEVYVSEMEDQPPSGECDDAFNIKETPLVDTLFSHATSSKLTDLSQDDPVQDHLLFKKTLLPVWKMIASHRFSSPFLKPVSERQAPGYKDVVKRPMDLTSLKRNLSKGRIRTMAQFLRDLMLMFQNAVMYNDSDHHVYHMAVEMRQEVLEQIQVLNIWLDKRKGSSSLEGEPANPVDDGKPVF
UniProt Q7Z569: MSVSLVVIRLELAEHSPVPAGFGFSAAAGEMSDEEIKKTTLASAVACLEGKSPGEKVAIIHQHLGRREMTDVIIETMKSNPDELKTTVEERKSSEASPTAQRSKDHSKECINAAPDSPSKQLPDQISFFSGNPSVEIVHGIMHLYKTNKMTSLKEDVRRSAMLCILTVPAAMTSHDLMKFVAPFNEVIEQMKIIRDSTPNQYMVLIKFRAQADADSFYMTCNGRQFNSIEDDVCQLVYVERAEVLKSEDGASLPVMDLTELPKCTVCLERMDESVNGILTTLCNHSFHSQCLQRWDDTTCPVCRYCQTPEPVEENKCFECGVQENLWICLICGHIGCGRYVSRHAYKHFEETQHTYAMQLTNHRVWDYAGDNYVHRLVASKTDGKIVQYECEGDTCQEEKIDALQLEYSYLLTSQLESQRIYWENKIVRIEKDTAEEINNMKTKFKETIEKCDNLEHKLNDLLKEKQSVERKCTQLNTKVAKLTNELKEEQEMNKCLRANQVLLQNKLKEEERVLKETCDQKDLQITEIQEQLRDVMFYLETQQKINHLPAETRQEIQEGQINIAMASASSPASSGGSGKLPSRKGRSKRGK
UniProt Q9Y679: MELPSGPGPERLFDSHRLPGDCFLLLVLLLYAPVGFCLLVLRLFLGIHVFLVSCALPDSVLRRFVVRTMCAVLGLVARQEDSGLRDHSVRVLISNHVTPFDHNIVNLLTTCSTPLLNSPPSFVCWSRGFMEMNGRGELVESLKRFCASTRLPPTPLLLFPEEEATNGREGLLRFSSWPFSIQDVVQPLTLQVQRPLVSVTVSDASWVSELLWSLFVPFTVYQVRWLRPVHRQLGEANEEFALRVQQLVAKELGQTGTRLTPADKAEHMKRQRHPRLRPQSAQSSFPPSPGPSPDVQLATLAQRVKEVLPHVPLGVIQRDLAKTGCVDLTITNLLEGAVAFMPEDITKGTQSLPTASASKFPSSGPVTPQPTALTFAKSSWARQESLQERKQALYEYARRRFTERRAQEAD

What was measured:
Assay in all cases: log2 fold change, soluble protein after heating vs DMSO (PISA); higher = thermal stabilisation; K562 cells, 10 uM, 30 min; active = over 0.2 and 3.5 SD of the protein, either way, in both replicates (recomputed)
[1] = compound: CS(=O)(=O)c1ccc(-c2cnc(N)c(C(=O)Nc3ccccc3)n2)cc1
Method in brief: (§1)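 Soluble protein was defined as the supernatant after 21,000xg for 90 min. It came from K562 cells at 2×10^6 cells/mL given 10 μM compound for 30 min, heated in aliquots for 3 min across 48°C-58°C, pooled, and extracted in PBS with 0.5% NP-40 at 4°C, and was quantified by TMTpro 16plex LC-MS/MS with equalised channel sums. Thermal stability against control samples, from duplicates, is reported as log2 fold change.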

crizotinib = compound: C[C@@H](Oc1cc(-c2cnn(C3CCNCC3)c2)cnc1N)c1c(Cl)ccc(F)c1Cl [crizotinib]
Method in brief: as §1

[2] = compound: C[C@@H]1COCCN1C2=NC(=NC(=C2)C3(CC3)S(=O)(=O)C)C4=C5C=CNC5=CC=C4
Method in brief: as §1

[3] = compound: C[C@H](C1=CC=C(C=C1)C(=O)NC2=C3C=CNC3=NC=C2)N
Method in brief: as §1

gandotinib = compound: Cc1cc(Nc2cc(CN3CCOCC3)c3nc(C)c(Cc4ccc(Cl)cc4F)n3n2)n[nH]1 [gandotinib]
Method in brief: as §1

[4] = compound: Cc1cc(SCc2sc(-c3ccc(C(F)(F)F)cc3)nc2C)ccc1OCC(=O)O
Method in brief: as §1

doramapimod = compound: Cc1ccc(-n2nc(C(C)(C)C)cc2NC(=O)Nc2ccc(OCCN3CCOCC3)c3ccccc23)cc1 [doramapimod]
Method in brief: as §1

ispinesib = compound: Cc1ccc(C(=O)N(CCCN)[C@@H](c2nc3cc(Cl)ccc3c(=O)n2Cc2ccccc2)C(C)C)cc1 [ispinesib]
Method in brief: as §1

duvelisib = compound: C[C@H](Nc1ncnc2nc[nH]c12)c1cc2cccc(Cl)c2c(=O)n1-c1ccccc1 [duvelisib]
Method in brief: as §1

tozasertib = compound: Cc1cc(Nc2cc(N3CCN(C)CC3)nc(Sc3ccc(NC(=O)C4CC4)cc3)n2)n[nH]1 [tozasertib]
Method in brief: as §1

Target | log2 fold change [1] | log2 fold change (crizotinib) | log2 fold change [2] | log2 fold change [3] | log2 fold change (gandotinib) | log2 fold change [4] | log2 fold change (doramapimod) | log2 fold change (ispinesib) | log2 fold change (duvelisib) | log2 fold change (tozasertib)
BAP1 (UniProt Q92560) | inactive: 0.07 | inactive: -0.078 | inactive: 0 | inactive: 0.126 | inactive: 0.076 | inactive: 0.085 | inactive: 0.112 | inactive: -0.043 |  | 
B4GALNT1 (UniProt Q00973) | inactive: 0.198 | inactive: 0.014 | inactive: -0.003 | inactive: -0.019 | inactive: -0.077 | inactive: 0.12 | inactive: 0.065 | inactive: -0.077 |  | 
B4GALT1 (UniProt P15291) | inactive: -0.007 | active: -0.479 | inactive: -0.031 | inactive: -0.124 | inactive: 0.161 | inactive: 0.049 | inactive: 0.071 | inactive: -0.066 |  | 
BRK1 isoform 2 (UniProt Q8WUW1) | inactive: -0.004 | inactive: 0.029 | inactive: 0.11 | inactive: -0.276 | inactive: -0.024 | inactive: -0.035 | inactive: -0.041 | inactive: 0.18 |  | 
BAIAP2 (UniProt Q9UQB8) | inactive: 0.023 | inactive: -0.115 | inactive: 0 | inactive: -0.039 | inactive: -0.053 | inactive: 0.08 | inactive: 0.086 | inactive: -0.057 |  | 
BLM (UniProt P54132) | inactive: 0.041 | inactive: -0.1 |  | inactive: -0.101 |  | inactive: 0.074 | inactive: 0.163 | inactive: -0.054 | inactive: -0.028 | inactive: -0.035
BCLAF1 (UniProt Q9NYF8) | inactive: -0.002 | inactive: -0.06 | inactive: 0.089 | active: -0.438 | inactive: -0.021 | inactive: -0.01 | inactive: 0.035 | inactive: 0.164 |  | 
BRAF (UniProt P15056) | inactive: 0.006 | inactive: 0.023 | inactive: 0.034 | inactive: -0.072 | inactive: -0.013 | inactive: -0.014 |  | inactive: -0.024 |  | 
ATRAID isoform 3 (UniProt Q6UW56) | inactive: 0.022 | inactive: 0.059 |  | inactive: -0.026 | inactive: -0.062 | inactive: -0.02 | inactive: 0.026 | inactive: -0.016 | inactive: 0.009 | inactive: 0.048
BRCA1 isoform 7 (UniProt P38398) | inactive: 0.158 | inactive: 0.02 |  |  |  |  | inactive: -0.03 | inactive: -0.154 |  | 
BRD8 isoform 2 (UniProt Q9H0E9) | inactive: -0.134 | inactive: 0.044 | inactive: -0.11 | inactive: 0.042 | inactive: 0.113 | inactive: -0.012 | inactive: 0.04 | inactive: 0.061 |  | 
BLVRB (UniProt P30043) | inactive: 0.04 | inactive: -0.006 | inactive: 0.036 | inactive: -0.081 | inactive: -0.085 | inactive: 0.002 | inactive: -0.027 | inactive: -0.012 |  | 
B2M (UniProt P61769) | inactive: -0.019 |  | inactive: 0.095 | inactive: 0 | inactive: 0.072 | inactive: 0.063 |  | inactive: 0.125 | inactive: 0.052 | inactive: 0.183
BRIP1 (UniProt Q9BX63) | inactive: 0.13 | inactive: 0.019 | inactive: 0.151 | inactive: -0.005 | inactive: -0.035 | inactive: 0.009 | inactive: -0.088 | inactive: 0.018 |  | 
BPTF (UniProt Q12830) | inactive: -0.24 | inactive: 0.122 | inactive: -0.12 |  |  | inactive: 0.178 | inactive: 0.274 |  | inactive: -0.004 | 
BAZ1B (UniProt Q9UIG0) | inactive: -0.153 | inactive: -0.207 |  | inactive: 0.107 | inactive: -0.119 |  | inactive: 0.004 |  |  | 
BRAP (UniProt Q7Z569) | inactive: 0.027 | inactive: -0.205 | inactive: 0.008 | inactive: -0.01 | inactive: -0.024 | inactive: 0.093 | inactive: 0.081 | inactive: -0.089 |  | 
AUP1 (UniProt Q9Y679) | inactive: -0.032 | inactive: -0.123 | inactive: 0.071 | inactive: -0.015 | inactive: -0.181 | inactive: 0.06 | inactive: -0.033 | active: -0.41 |  | 
BET1L (UniProt Q9NYM9) | inactive: -0.066 |  | inactive: -0.043 | inactive: -0.316 |  | inactive: 0.075 |  | inactive: 0.066 | inactive: 0.047 | inactive: 0.071
AURKAIP1 (UniProt Q9NWT8) | inactive: 0.09 |  | inactive: -0.156 | inactive: 0.456 |  | inactive: -0.015 |  | inactive: -0.262 | inactive: -0.176 | inactive: 0.041
BRIX1 (UniProt Q8TDN6) | inactive: -0.027 | inactive: -0.097 | inactive: -0.292 | inactive: 0.318 | inactive: 0.056 | inactive: 0.093 | inactive: 0.288 | inactive: 0.166 |  | 
BPIFA1 (UniProt Q9NP55) | inactive: 0.189 | inactive: 0.184 |  |  |  |  | inactive: -0.357 | inactive: 1 |  | 
BORA (UniProt Q6PGQ7) | inactive: 0.149 |  | inactive: 0.073 |  |  |  |  |  |  | 
BDH2 (UniProt Q9BUT1) | inactive: 0.035 | inactive: 0.243 |  | inactive: -0.215 | inactive: 0.011 | inactive: 0.067 | inactive: -0.053 | inactive: 0.053 |  | 
BPHL (UniProt Q86WA6) | inactive: 0.02 | inactive: -0.036 | inactive: 0.008 | inactive: -0.059 | inactive: 0.05 | inactive: -0.01 | inactive: 0.004 | inactive: 0.01 |  | 

A section from the list above, for reference:
Target | log2 fold change [1] | log2 fold change (crizotinib) | log2 fold change [2] | log2 fold change [3] | log2 fold change (gandotinib) | log2 fold change [4] | log2 fold change (doramapimod) | log2 fold change (ispinesib) | log2 fold change (duvelisib) | log2 fold change (tozasertib)
BAIAP2 (UniProt Q9UQB8) | inactive: 0.023 | inactive: -0.115 | inactive: 0 | inactive: -0.039 | inactive: -0.053 | inactive: 0.08 | inactive: 0.086 | inactive: -0.057 |  | 
BLM (UniProt P54132) | inactive: 0.041 | inactive: -0.1 |  | inactive: -0.101 |  | inactive: 0.074 | inactive: 0.163 | inactive: -0.054 | inactive: -0.028 | inactive: -0.035
BCLAF1 (UniProt Q9NYF8) | inactive: -0.002 | inactive: -0.06 | inactive: 0.089 | active: -0.438 | inactive: -0.021 | inactive: -0.01 | inactive: 0.035 | inactive: 0.164 |  | 
BRAF (UniProt P15056) | inactive: 0.006 | inactive: 0.023 | inactive: 0.034 | inactive: -0.072 | inactive: -0.013 | inactive: -0.014 |  | inactive: -0.024 |  | 
ATRAID isoform 3 (UniProt Q6UW56) | inactive: 0.022 | inactive: 0.059 |  | inactive: -0.026 | inactive: -0.062 | inactive: -0.02 | inactive: 0.026 | inactive: -0.016 | inactive: 0.009 | inactive: 0.048
BRCA1 isoform 7 (UniProt P38398) | inactive: 0.158 | inactive: 0.02 |  |  |  |  | inactive: -0.03 | inactive: -0.154 |  | 
